Residue numbers refer to the chain shown, from its start. Results are given in words; binding and its absence hold for the method and conditions named. Some binding calls cover weakened binding; strength is not graded here.
B1: V6 (Fc fusion, not shown: a dimerising Fc or GST; small tags and cut ends)
chain: SLRLLDHRALVCSQEGLNCTVKNSTCLDDSWIHPRNLTPSSPKDLQIQLHFAHTQQGDLLPVAHIEWTLQTDASILYLEGAELSVLQLNTNERLCVRFEFLSKLRHHHKRWRFTFSHFVVDPGQEYEVTVHHLPKPIPDGDPNHQSKNFLVPDCEHARMKVTTPCMSSGSLWDPNITVETLEAHQLRVSFTLWNESTHYQILLTSFPHMENHSCFEHMHHIPAPRPEEFHQRSNVTLTLRNLKGCCRHQVQIQPFFSSCLNDCLRHSATVSCPEMPDTPEPIPDYMPLW
B2: V7 (Fc fusion, not shown: a dimerising Fc or GST; small tags and cut ends)
chain: B1 chain with E15P, L60V, G123D, H156D
B3: V8 (Fc fusion, not shown: a dimerising Fc or GST; small tags and cut ends)
chain: B1 chain with L60F, G123D, H156D

Protein sequences, listed by entry. Tags and fused reporters are not part of them. Residues count along the entry.
UniProt Q16552, residues 24-155: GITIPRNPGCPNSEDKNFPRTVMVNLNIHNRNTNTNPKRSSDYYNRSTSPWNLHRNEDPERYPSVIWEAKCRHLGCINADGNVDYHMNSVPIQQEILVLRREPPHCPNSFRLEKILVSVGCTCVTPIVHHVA

biological target: hIL-17A (human) (UniProt Q16552); test: ELISA of purified protein from mammalian cells at 5, 2.5, 1 and 0.5 µg/ml on plate-immobilised hIL-17A, OD 450 nm

Binder	binding
B1	binds
B2	binds
B3	binds
